Reference: patent US11786584B2, “Peptides and combination of peptides for use in immunotherapy against prostate cancer and other cancers” (Immatics Biotechnologies GmbH, priority 2015, dated 2023)

Experiments:
[1] = tested on: prostate tumor tissues compared to a panel of normal tissues; assay: Label-free relative LC-MS quantitation of HLA-A*02 peptide presentation (presentation score); set-up: species or system human; key to Peptide Presentation: very highly over-presented on tumors compared to a panel of normal tissues (+++); highly over-presented on tumors compared to a panel of normal tissues (++); over-presented on tumors compared to a panel of normal tissues (+); details: for detection of the peptide on further tissues: HLA-A*02, figure legend FIG. 1A, 1D; for Peptide Presentation: HLA-A*02 peptides, tumors vs panel of normal tissues
tumor samples = assay: Absolute quantitation of peptide copies per cell by nanoLC-MS/MS; set-up: species or system human; details: median over tumor samples
[2] = tested on: prostate tumor tissues compared to a panel of normal tissues; assay: Label-free relative LC-MS quantitation of HLA-A*24 peptide presentation (presentation score); set-up: species or system human; key: very highly over-presented on tumors compared to a panel of normal tissues (+++); highly over-presented on tumors compared to a panel of normal tissues (++); over-presented on tumors compared to a panel of normal tissues (+); details: HLA-A*24 peptides; tumors vs panel of normal tissues

Substance | Peptide Presentation [1] | Copies per cell (median) (tumor samples) | Peptide Presentation [2] | other results
1 (VTAQIGIVAV; listed as Homo sapiens) [compound 1] | +++ | + (<100 = +) |  | detection of the peptide on further tissues [1]: also found on small cell lung cancer
2 (SMLGEEIQL; listed as Homo sapiens) [compound 2] | +++ | ++ (> = 100 = ++) |  | 
3 (HLLEDIAHV; listed as Homo sapiens) [compound 3] | +++ | ++ (> = 100 = ++) |  | 
4 (ALLTFVWKL; listed as Homo sapiens) [compound 4] | +++ | +++ (> = 1,000 +++) |  | 
5 (KIFSRLIYI; listed as Homo sapiens) [compound 5] | +++ | ++ (> = 100 = ++) |  | 
6 (ALLESRVNL; listed as Homo sapiens) [compound 6] | +++ | + (<100 = +) |  | 
7 (TLLQVVGVVSV; listed as Homo sapiens) [compound 7] | +++ |  |  | 
8 (LLDFSLADA; listed as Homo sapiens) [compound 8] | +++ |  |  | 
9 (GMLNEAEGKAIKL; listed as Homo sapiens) [compound 9] | ++ |  |  | 
10 (TLWRGPVVV; listed as Homo sapiens) [compound 10] | +++ |  |  | 
11 (YLEEECPAT; listed as Homo sapiens) [compound 11] | +++ |  |  | 
12 (SLNEEIAFL; listed as Homo sapiens) [compound 12] | +++ |  |  | 
14 (KMDEASAQLL; listed as Homo sapiens) [compound 14] | +++ |  |  | 
15 (KMDEASAQLLA; listed as Homo sapiens) [compound 15] | +++ |  |  | 
17 (RLGIKPESV; listed as Homo sapiens) [compound 17] | ++ |  |  | 
18 (GLSEFTEYL; listed as Homo sapiens) [compound 18] | +++ |  |  | 
19 (LLPPPPLLA; listed as Homo sapiens) [compound 19] | +++ |  |  | 
20 (SLLSHQVLL; listed as Homo sapiens) [compound 20] | +++ |  |  | detection of the peptide on further tissues [1]: not detected on any normal tissue
21 (YLNDSLRHV; listed as Homo sapiens) [compound 21] | +++ |  |  | 
22 (SLYDSIAFI; listed as Homo sapiens) [compound 22] | +++ |  |  | 
23 (AVAGADVIITV; listed as Homo sapiens) [compound 23] | + |  |  | 
24 (SYNDALLTF; listed as Homo sapiens) [compound 24] |  | +++ (> = 1,000 +++) | +++ | 
25 (IYEPYLAMF; listed as Homo sapiens) [compound 25] |  |  | + | 
26 (RYADDTFTPAF; listed as Homo sapiens) [compound 26] |  | ++ (> = 100 = ++) | +++ | 
27 (GYLQGLVSF; listed as Homo sapiens) [compound 27] |  | ++++ (> = 10,000 = ++++) | +++ | 

Substance | Peptide Presentation [1] | Copies per cell (median) (tumor samples) | Peptide Presentation [2] | other results
28 (YYAKEIHKF; listed as Homo sapiens) [compound 28] |  | +++ (> = 1,000 +++) | +++ | 
29 (RYGSPINTF; listed as Homo sapiens) [compound 29] |  |  | +++ | 
30 (SYSPAHARL; listed as Homo sapiens) [compound 30] |  |  | +++ | 
31 (AYTSPPSFF; listed as Homo sapiens) [compound 31] |  |  | +++ | 
32 (PYQLNASLFTF; listed as Homo sapiens) [compound 32] |  |  | +++ | 
34 (AFSPDSHYLLF; listed as Homo sapiens) [compound 34] |  |  | +++ | 
35 (IYTRVTYYL; listed as Homo sapiens) [compound 35] |  |  | +++ | 
36 (RYMWINQEL; listed as Homo sapiens) [compound 36] |  |  | ++ | 
37 (RYLQDLLAW; listed as Homo sapiens) [compound 37] |  |  | +++ | 
38 (VYSDKLWIF; listed as Homo sapiens) [compound 38] |  |  | ++ | 
39 (SYIDVAVKL; listed as Homo sapiens) [compound 39] |  |  | + | 
40 (RTFSPTYGL; listed as Homo sapiens) [compound 40] | ++ |  |  | 
41 (RYLQKIEEF; listed as Homo sapiens) [compound 41] |  |  | +++ | 
42 (TYIGQGYII; listed as Homo sapiens) [compound 42] |  | ++ (> = 100 = ++) | +++ | 
43 (AYIKNGQLF; listed as Homo sapiens) [compound 43] |  |  | +++ | 
44 (VYNTVSEGTHF; listed as Homo sapiens) [compound 44] |  |  | + | 
45 (RYFKTPRKF; listed as Homo sapiens) [compound 45] |  |  | ++ | 
46 (VYEEILHQI; listed as Homo sapiens) [compound 46] |  |  | ++ | 
47 (SYTPVLNQF; listed as Homo sapiens) [compound 47] |  |  | ++ | 
48 (AWAPKPYHKF; listed as Homo sapiens) [compound 48] |  |  | ++ | 
50 (TLGPASFLV; listed as Homo sapiens) [compound 50] |  | ++ (> = 100 = ++) |  | 
54 (AYSEKVTEF; listed as Homo sapiens) [compound 54] |  | +++ (> = 1,000 +++) |  | 
55 (LYFEKGEYF; listed as Homo sapiens) [compound 55] |  | +++ (> = 1,000 +++) |  | 
56 (LFHPEDTGQVF; listed as Homo sapiens) [compound 56] |  | +++ (> = 1,000 +++) |  | 
57 (KYADKIYSI; listed as Homo sapiens) [compound 57] |  | +++ (> = 1,000 +++) |  | 
